Measured values taken from publication PMC2973830.
Like-named read-outs stand apart in the source and are kept apart here. No constants are given. Whether binding was seen depends on the method and setting. Binding seen in cells or lysates may run through a third protein. A yes stands for co-enrichment or nearness to the bait. Other partners may have been found. For some of these results: No binding means not detected with the bait. For some of these results: Sequences can lack the tags named with a protein.

By UniProt entry, the sequences of proteins in these tests, tags left out. Where a name states a change or a piece, a line headed by the entry shows the natural chain unless it says otherwise.
UniProt Q7RZU1: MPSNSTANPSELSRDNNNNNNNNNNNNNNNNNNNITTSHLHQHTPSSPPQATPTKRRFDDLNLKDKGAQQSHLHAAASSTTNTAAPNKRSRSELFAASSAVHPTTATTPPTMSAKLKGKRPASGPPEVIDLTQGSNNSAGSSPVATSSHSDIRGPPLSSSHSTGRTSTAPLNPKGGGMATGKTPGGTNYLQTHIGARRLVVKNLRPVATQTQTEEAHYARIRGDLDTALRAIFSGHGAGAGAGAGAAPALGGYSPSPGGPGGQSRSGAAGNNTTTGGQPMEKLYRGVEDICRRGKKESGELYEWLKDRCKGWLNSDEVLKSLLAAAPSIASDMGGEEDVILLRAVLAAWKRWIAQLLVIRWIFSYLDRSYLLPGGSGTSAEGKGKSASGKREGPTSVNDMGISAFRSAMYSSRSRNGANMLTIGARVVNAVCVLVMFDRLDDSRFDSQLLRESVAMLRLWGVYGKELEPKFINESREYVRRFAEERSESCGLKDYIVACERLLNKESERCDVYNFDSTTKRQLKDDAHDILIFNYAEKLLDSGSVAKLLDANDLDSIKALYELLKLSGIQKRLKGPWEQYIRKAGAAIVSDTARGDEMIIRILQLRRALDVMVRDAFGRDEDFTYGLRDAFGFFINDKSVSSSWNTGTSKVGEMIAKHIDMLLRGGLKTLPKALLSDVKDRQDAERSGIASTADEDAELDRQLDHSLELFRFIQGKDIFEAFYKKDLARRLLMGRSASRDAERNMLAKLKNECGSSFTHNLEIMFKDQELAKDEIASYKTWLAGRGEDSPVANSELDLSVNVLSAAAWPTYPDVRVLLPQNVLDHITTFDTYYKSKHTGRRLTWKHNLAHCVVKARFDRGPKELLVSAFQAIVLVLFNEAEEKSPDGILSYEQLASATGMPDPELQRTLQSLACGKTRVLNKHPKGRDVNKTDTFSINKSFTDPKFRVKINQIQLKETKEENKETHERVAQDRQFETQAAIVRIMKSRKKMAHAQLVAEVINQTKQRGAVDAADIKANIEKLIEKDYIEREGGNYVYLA
UniProt Q7RVK6: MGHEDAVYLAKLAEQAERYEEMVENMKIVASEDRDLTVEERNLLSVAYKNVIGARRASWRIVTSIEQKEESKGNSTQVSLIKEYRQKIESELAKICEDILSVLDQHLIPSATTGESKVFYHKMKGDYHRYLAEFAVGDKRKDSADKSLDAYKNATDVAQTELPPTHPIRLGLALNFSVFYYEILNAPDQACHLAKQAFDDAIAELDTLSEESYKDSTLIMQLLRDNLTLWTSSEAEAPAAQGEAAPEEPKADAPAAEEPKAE

Experiments:
Experiment in all cases: affinity purification with mass spectrometry; HAT-FLAG tandem-affinity-tagged bait (DIM-5 or CUL4) purified in two steps from a Neurospora strain; SDS-PAGE, gel slices digested with trypsin, nano-HPLC and ion trap MS/MS, Mascot search of UniProt
[1] = biological target: CUL4 fused to a tandem HAT-FLAG affinity tag (N. crassa) (UniProt Q7RZU1)
[2] = biological target: T1, DIM-5 fused to a HAT-FLAG tandem affinity tag (N. crassa) (UniProt Q8X225)
T1 sequence: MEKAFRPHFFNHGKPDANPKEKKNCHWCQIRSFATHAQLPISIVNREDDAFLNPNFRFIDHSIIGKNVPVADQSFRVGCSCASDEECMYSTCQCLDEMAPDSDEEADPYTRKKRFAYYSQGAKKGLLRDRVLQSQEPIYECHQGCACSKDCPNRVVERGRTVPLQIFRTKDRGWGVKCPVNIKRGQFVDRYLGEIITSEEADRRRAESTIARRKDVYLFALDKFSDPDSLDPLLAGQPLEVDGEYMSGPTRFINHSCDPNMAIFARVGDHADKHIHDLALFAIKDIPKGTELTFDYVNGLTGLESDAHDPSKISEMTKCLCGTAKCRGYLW

[3] = biological target: CUL4 fused to a tandem HAT-FLAG affinity tag (N. crassa) (UniProt Q7RZU1); remark: listed apart in the source

Molecule: NFH-2 (Neurospora fourteen-three-three homolog-2) (from UniProt Q7RVK6 1-262)
- binding [1]: no binding
- binding [2]: binds

B1: DIM-7 (protein, UniProt Q1K7K7 1-666)
chain: MAGPGRPRRRRGSSASIDSTDDRRRRWTRELAILKPVTPGTSDDLWPYFAVLTDATIYQKDGKTLANPLHVDLEGPFIVRGKLEPVEDGDDEARECFHKPYNKATYIEISRSERYSIGYEPNTLWVSGASGWFEIIPSRKYETMYNEVMEAITLYYGIMGPYEEHKRLLKKADKKKRKDVKPPSLDEIFFSYALTAGDGAVTVKEEVEARCLKWAQFLLAHFPKESEIRWQDTGFAAWLQSARPDLQKKISDVAAGLLTKPAAEPEGLLARDDHSPQPQSLAIREPPKGGRTTRTSRQASELSDQRSDKGKGIARDSPVETPIPAPVSNRHLSSSSPRPRASPAVITGSDDLPDDPVDRLIVLLGEVAQRIDIKTVKMSKINSDLFYNCRIKYYNAARELCEHFAKDLLERLPPMWDNTPYRAWLEDVVENGRPAPVEFVVEDIPQYLTRRTRRQTHISRLSSALGPTPSVEAESKDEVRAGKQPRVGRPSGKVATLRVAGSKRLASDMIDEDELPPRRGRKALKRTVRVEEDEDSDANSVIIDMTDNTGVIPKDAVRIVVQAERLPTMSPAGPNGTWTCDQEGCNYVVRSADEPEGQDLISKHFKDHEEQAQKINLAMEESKAGHLPINHLLDKIQAMGKNALAKKRGSLNGEPLPLPIKRRLLI
- binding [3]: binds

B2: DIM-5 (enzyme, UniProt Q8X225 1-331)
chain: T1 sequence
- binding [3]: no binding
